From article PMC8967222
Results are given in words; binding and its absence hold for the method and conditions named. Binding seen in cells or lysates may run through a third protein. Some binding calls cover weakened binding; strength is not graded here.

The chains behind the UniProt entries cited, without tags or fusion partners.
UniProt P06537: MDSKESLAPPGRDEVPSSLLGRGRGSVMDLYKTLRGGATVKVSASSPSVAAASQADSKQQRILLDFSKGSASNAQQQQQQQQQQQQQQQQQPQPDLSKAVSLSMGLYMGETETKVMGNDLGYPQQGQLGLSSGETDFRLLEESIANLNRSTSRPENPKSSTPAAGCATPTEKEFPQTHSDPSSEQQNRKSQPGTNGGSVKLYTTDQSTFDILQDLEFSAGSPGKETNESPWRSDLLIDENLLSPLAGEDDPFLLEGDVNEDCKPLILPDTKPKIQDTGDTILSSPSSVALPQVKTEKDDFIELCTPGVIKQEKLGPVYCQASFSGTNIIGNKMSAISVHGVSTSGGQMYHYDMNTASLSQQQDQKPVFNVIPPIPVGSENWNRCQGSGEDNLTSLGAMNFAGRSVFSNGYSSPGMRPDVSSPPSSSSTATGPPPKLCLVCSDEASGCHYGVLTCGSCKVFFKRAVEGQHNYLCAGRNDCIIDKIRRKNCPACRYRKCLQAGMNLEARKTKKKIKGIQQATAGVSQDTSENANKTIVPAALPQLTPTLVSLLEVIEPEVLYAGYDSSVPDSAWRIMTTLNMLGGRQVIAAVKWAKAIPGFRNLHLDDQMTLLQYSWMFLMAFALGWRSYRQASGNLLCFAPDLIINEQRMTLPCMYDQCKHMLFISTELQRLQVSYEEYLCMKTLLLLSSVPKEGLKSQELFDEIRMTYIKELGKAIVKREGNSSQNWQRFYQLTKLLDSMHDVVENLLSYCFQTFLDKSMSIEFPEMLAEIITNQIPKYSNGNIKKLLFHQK
UniProt Q6KCD5: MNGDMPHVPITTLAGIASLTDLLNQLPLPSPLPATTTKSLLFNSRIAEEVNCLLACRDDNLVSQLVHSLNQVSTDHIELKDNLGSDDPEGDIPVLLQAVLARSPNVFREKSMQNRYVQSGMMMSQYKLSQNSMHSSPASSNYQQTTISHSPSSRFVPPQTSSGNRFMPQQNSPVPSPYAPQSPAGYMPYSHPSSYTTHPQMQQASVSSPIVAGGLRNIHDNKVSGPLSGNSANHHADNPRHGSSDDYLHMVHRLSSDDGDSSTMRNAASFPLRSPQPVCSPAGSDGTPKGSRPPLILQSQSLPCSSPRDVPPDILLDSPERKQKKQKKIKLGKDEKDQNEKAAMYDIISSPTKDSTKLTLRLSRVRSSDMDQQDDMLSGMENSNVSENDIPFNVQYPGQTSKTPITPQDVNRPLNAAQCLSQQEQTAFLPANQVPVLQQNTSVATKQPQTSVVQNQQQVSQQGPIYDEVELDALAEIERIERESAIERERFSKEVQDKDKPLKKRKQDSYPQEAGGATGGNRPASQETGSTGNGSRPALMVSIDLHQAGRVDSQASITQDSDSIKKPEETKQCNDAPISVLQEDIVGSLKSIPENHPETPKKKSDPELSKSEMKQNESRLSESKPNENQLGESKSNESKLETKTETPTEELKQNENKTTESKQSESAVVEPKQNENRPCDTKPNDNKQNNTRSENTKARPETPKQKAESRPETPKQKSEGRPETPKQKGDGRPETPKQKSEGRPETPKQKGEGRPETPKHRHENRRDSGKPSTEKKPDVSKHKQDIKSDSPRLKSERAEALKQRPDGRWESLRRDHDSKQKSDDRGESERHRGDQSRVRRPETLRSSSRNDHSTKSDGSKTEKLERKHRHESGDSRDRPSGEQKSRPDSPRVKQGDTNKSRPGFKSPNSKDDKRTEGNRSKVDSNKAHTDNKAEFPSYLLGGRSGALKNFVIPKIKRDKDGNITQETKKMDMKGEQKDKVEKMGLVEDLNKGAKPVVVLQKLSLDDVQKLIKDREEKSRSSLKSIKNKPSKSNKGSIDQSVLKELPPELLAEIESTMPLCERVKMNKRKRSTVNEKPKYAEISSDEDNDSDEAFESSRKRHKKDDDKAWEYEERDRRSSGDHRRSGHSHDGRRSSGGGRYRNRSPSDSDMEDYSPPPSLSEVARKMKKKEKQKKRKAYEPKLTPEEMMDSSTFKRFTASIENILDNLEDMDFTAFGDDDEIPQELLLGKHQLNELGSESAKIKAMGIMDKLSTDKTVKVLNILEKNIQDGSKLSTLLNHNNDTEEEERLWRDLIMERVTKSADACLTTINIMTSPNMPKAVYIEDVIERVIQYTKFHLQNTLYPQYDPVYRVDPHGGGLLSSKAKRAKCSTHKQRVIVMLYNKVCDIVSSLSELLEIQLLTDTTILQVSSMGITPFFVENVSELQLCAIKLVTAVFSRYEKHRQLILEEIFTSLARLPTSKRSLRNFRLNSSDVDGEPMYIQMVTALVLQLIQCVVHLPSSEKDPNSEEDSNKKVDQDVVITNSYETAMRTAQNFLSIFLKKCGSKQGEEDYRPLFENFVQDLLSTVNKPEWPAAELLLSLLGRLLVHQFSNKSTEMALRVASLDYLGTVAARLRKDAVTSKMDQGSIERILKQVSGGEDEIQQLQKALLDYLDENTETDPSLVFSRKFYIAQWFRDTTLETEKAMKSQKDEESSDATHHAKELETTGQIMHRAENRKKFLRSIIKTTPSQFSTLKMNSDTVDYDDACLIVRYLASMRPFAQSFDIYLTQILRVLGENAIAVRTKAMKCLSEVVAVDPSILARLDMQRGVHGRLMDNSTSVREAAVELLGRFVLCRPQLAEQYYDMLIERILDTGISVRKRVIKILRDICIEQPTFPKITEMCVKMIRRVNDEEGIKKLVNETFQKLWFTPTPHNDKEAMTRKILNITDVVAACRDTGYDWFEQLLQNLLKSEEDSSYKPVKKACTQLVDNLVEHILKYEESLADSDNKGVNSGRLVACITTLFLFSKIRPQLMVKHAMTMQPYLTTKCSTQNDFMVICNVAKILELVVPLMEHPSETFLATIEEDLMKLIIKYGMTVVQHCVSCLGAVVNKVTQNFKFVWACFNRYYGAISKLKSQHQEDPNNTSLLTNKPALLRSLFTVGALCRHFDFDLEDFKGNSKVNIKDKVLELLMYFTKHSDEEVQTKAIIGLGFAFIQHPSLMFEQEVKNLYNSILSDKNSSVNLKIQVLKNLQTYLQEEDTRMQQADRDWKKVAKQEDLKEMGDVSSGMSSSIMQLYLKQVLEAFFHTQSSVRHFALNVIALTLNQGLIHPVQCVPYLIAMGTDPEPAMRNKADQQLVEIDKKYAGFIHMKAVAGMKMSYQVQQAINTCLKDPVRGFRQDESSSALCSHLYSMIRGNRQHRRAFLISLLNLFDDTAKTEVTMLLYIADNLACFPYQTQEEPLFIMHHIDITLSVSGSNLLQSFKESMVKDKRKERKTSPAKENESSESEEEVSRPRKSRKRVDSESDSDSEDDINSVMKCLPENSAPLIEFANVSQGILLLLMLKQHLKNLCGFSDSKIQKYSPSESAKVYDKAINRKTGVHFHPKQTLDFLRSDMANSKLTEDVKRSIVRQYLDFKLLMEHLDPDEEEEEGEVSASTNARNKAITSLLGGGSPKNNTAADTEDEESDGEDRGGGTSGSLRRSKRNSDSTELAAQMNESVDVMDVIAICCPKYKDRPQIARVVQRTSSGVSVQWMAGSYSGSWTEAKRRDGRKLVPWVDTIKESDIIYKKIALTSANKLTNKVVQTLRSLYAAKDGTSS
UniProt Q9CW03: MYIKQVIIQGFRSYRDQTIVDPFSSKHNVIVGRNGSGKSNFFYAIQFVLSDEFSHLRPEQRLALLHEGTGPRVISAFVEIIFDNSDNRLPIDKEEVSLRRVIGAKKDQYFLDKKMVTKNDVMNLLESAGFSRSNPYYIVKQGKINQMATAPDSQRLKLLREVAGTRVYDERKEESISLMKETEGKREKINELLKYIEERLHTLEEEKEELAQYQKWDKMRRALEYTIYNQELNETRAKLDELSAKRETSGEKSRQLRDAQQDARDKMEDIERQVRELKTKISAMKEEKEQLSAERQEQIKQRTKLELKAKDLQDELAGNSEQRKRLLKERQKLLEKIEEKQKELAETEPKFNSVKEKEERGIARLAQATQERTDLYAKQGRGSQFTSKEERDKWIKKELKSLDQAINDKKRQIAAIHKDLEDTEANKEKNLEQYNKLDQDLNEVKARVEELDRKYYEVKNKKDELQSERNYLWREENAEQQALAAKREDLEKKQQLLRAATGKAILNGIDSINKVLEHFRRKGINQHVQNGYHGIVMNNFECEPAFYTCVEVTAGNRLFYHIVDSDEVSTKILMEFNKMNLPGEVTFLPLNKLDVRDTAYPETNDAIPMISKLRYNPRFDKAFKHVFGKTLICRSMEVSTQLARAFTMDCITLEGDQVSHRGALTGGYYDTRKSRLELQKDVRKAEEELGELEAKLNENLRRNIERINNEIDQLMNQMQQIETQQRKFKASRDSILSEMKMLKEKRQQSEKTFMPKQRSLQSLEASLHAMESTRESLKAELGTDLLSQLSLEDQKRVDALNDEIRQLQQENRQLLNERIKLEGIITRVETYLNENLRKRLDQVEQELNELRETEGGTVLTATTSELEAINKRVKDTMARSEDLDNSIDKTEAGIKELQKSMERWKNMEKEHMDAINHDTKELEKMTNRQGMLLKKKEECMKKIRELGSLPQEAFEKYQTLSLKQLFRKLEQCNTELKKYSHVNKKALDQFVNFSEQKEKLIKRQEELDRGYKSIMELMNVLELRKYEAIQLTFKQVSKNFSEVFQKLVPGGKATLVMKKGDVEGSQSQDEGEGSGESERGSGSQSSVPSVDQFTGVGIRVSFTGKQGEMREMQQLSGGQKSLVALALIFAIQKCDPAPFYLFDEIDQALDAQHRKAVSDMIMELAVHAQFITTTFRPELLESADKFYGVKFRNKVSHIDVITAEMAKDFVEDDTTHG

Assays:
[1] = molecular target: glucocorticoid (GC) receptor (GR) (mouse (endogenous in 3134 mammary carcinoma cells)) (UniProt P06537); test: proximity ligation; endogenous proteins in fixed (4% paraformaldehyde), permeabilised mammary cancer cells; Duolink kit DUO92101
[2] = molecular target: glucocorticoid (GC) receptor (GR) (mouse (endogenous in 3134 mammary carcinoma cells)) (UniProt P06537); test: co-IP; GR immunoprecipitation from cells treated with EtOH or dexamethasone (100 nM), fixed 12 min with 1% paraformaldehyde, lysed and sonicated (average DNA 500 bp); GR antibody beads overnight at 4°C; low-salt, high-salt, LiCl and TE washes; Western blot

cohesin loader NIPBL (from UniProt Q6KCD5 1-2798)
binding [1]: binds
binding [2]: binds

SMC3 (from UniProt Q9CW03 1-1217)
binding [1]: binds
binding [2]: binds

B1: SMC1a (structural maintenance of chromosomes 1a) (protein, UniProt Q9CU62 1-1233)
chain: MGFLKLIEIENFKSYKGRQIIGPFQRFTAIIGPNGSGKSNLMDAISFVLGEKTSNLRVKTLRDLIHGAPVGKPAANRAFVSMVYSEEGAEDRTFARVIVGGSSEYKINNKVVQLHEYSEELEKLGILIKARNFLVFQGAVESIAMKNPKERTALFEEISRSGELAQEYDKRKKEMVKAEEDTQFNYHRKKNIAAERKEAKQEKEEADRYQRLKDEVVRAQVQLQLFKLYHNEVEIEKLNKELASKNKEIEKDKKRMDKVEDELKEKKKELGKMMREQQQIEKEIKEKDSELNQKRPQYIKAKENTSHKIKKLEAAKKSLQNAQKHYKKRKGDMDELEKEMLSVEKARQEFEERMEEESQSQGRDLTLEENQVKKYHRLKEEASKRAATLAQELEKFNRDQKADQDRLDLEERKKVETEAKIKQKLREIEENQKRIEKLEEYITTSKQSLEEQKKLEGELTEEVEMAKRRIDEINKELNQVMEQLGDARIDRQESSRQQRKAEIMESIKRLYPGSVYGRLIDLCQPTQKKYQIAVTKVLGKNMDAIIVDSEKTGRDCIQYIKEQRGEPETFLPLDYLEVKPTDEKLRELKGAKLVIDVIRYEPPHIKKALQYACGNALVCDNVEDARRIAFGGHQRHKTVALDGTLFQKSGVISGGASDLKAKARRWDEKAVDKLKEKKERLTEELKEQMKAKRKEAELRQVQSQAHGLQMRLKYSQSDLEQTKTRHLALNLQEKSKLESELANFGPRINDIKRIIQSREREMKDLKEKMNQVEDEVFEEFCREIGVRNIREFEEEKVKRQNEIAKKRLEFENQKTRLGIQLDFEKNQLKEDQDKVHMWEQTVKKDENEIEKLKKEEQRHMKIIDETMAQLQDLKNQHLAKKSEVNDKNHEMEEIRKKLGGANKEMTHLQKEVTAIETKLEQKRSDRHNLLQACKMQDIKLPLSKGTMDDISQEEGSSQGEESVSGSQRTSSIYAREALIEIDYGDLCEDLKDAQAEEEIKQEMNTLQQKLNEQQSVLQRIAAPNMKAMEKLESVRDKFQETSDEFEAARKRAKKAKQAFEQIKKERFDRFNACFESVATNIDEIYKALSRNSSAQAFLGPENPEEPYLDGINYNCVAPGKRFRPMDNLSGGEKTVAALALLFAIHSYKPAPFFVLDEIDAALDNTNIGKVANYIKEQSTCNFQAIVISLKEEFYTKAESLIGVYPEQGDCVISKVLTFDLTKYPDANPNPNEQ
binding [2]: binds
